Results are given in words; binding and its absence hold for the method and conditions named.
Biological target: T1, LEA29 (Arabidopsis thaliana), Q9LW12
T1 chain: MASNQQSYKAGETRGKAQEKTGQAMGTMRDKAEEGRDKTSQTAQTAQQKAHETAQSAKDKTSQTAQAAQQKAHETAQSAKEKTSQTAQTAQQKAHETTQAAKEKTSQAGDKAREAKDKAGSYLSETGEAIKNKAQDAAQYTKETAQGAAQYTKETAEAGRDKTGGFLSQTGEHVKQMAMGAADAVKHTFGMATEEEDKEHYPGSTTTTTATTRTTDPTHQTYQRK
Experiment: static and dynamic light scattering (SLS/DLS); protein alone in solution, fully hydrated conditions; apparent mass and hydrodynamic radius as a function of concentration, extrapolated to infinite dilution; 23 °C, scattering angle 90°; both purified
Conditions: remark: other sources report otherwise

binding: no binding
B1: LEA29, Q9LW12 1-225 (protein)
chain: MASNQQSYKAGETRGKAQEKTGQAMGTMRDKAEEGRDKTSQTAQTAQQKAHETAQSAKDKTSQTAQAAQQKAHETAQSAKEKTSQTAQTAQQKAHETTQAAKEKTSQAGDKAREAKDKAGSYLSETGEAIKNKAQDAAQYTKETAQGAAQYTKETAEAGRDKTGGFLSQTGEHVKQMAMGAADAVKHTFGMATEEEDKEHYPGSTTTTTATTRTTDPTHQTYQRK

Reference: publication PMC7215670
